This experiment deals with T1, Aβ(21-37).
T1 sequence (peptide): AEDVGSNKGAIIGLMVG
The experiment in a line: sequenced from the IVIgG fraction bound to the Cys-Aβ(12-40) column; the single pair was not tested on its own.

These are yes or no findings as the source states them, for the method shown. Some results given as binding are weak or reduced against the parent protein; the word gives no strength.

B1: Aβ-autoantibody from serum-IVIgG, light chain kappa IVIG_(1)_A' with heavy chain IVIG_(4)_A (antibody, V domains shown)
VH: EVQLVESGGGVVQPGGSLRLSCAASGFTFRSYWMSWVRQAPGKGLEWVASVKQDGSEKYYVDSVKGRFTISRDTSKNTLYLQMNSLRAEDTAVYYCARDASSWYRDWFDPWGQGTLVTVSS
VL: EIVLTQSPATLSLSPGERVTITCRASQSVNSYLAWYQQKPPGQAPRLLIYAGSTRATGIPDRFSGSGSGTDFTLTISRLEPEDFAVYYCQQYGSSQGTFGPGTKVDIKR
modifications: N-glycosylation at N-301
Take B1: the binding entry is given as “binds”.

B2: Aβ-autoantibody from serum-IVIgG, light chain kappa IVIG_(2)_B' with heavy chain IVIG_(5)_B (antibody, V domains shown)
VH: EVQLVESGGGVVQPGGSLRLSCAASGFTFRGYWMSWVRQAPGKGLEWVASVKQDGSEKYYVDSVKGRFTISRDTSKNTLYLQMNSLRAEDTAVYYCARDGSSWYRDWFDPWGQGTLVTVSS
VL: EIVLTQSPATLSLSPGERVTITCRESQGIRNYLAWYQQKPPGQAPRLLIYAASSRATGIPDRFSGSGSGTDFTLTISRLEPEDFAVYYCQQYGSSQGTFGPGTKVDIKR
modifications: N-glycosylation at N-301
With B2, the binding result is given as “binds”.

The record behind these values is EP1944315A1.
